# Measured values reported in the supplement of paper PMC6411743.
# Protein sequences, listed by entry. Tags and fused reporters are not part of them. Lines headed by an entry give the natural chain unless they say otherwise; changes in a name come on top.
# UniProt P22570: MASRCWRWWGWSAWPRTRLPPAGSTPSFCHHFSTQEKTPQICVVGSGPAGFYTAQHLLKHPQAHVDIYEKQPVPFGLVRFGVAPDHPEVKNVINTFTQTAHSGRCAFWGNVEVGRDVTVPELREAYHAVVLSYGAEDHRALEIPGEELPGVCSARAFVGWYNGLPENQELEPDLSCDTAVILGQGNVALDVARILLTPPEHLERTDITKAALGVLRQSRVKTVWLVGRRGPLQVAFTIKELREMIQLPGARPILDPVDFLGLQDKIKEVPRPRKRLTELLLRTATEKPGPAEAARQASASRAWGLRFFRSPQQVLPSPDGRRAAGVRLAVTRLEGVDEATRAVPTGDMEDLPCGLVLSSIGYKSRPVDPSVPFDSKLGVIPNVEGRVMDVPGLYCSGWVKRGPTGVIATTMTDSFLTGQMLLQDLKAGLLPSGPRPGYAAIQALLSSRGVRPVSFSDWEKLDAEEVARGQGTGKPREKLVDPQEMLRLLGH
# UniProt P30566: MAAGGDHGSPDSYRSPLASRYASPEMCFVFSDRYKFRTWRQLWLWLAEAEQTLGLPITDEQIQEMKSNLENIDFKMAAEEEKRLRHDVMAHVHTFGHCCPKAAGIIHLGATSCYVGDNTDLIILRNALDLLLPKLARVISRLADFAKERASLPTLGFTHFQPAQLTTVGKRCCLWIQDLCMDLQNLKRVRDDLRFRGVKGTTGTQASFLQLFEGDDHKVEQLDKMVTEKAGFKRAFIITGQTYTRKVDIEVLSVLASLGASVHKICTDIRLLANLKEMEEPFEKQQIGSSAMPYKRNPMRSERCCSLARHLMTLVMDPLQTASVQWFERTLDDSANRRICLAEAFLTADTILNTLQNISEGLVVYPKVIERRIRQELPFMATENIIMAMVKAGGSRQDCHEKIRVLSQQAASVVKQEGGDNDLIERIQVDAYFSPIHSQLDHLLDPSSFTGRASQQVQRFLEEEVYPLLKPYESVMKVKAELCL
# UniProt Q14160: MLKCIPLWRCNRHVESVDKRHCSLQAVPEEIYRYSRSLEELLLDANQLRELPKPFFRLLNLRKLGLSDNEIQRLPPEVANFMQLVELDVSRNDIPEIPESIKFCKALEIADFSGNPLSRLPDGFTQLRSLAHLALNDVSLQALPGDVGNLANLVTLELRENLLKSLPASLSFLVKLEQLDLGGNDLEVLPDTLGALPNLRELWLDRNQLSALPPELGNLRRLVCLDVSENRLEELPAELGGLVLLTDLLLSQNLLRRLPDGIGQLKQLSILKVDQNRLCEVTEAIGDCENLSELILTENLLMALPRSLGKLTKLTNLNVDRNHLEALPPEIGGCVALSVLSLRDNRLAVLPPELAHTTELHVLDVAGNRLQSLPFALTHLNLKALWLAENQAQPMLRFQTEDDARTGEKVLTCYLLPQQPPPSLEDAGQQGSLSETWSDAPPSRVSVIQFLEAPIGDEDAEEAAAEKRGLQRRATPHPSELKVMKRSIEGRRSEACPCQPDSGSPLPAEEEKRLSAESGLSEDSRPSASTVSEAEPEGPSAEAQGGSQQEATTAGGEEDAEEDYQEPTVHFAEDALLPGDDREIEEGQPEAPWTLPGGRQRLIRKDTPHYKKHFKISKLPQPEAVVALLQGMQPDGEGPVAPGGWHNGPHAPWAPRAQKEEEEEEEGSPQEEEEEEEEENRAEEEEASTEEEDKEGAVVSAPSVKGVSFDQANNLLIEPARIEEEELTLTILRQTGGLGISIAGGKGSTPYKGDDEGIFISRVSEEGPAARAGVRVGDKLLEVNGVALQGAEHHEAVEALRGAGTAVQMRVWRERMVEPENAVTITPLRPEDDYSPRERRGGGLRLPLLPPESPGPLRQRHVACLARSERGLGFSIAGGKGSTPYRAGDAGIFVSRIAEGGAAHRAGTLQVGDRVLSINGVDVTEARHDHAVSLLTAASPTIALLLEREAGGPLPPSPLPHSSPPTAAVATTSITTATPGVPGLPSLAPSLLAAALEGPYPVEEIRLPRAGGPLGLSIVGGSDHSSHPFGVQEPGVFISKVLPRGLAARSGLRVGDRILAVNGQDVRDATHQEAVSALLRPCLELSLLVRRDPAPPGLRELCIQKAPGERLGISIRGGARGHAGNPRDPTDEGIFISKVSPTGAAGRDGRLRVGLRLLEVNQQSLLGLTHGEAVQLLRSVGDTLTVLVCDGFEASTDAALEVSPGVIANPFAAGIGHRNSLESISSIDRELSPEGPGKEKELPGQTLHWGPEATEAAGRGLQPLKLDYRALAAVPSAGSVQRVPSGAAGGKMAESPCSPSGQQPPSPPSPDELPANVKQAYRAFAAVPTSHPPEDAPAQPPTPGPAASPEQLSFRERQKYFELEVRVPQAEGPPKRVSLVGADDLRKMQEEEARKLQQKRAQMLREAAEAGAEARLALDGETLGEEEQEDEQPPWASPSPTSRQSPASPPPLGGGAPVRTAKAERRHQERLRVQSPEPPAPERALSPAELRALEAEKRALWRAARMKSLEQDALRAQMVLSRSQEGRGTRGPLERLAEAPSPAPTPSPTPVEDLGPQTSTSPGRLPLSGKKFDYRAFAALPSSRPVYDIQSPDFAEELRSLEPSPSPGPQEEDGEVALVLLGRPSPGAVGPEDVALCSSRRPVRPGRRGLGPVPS
# UniProt O95218: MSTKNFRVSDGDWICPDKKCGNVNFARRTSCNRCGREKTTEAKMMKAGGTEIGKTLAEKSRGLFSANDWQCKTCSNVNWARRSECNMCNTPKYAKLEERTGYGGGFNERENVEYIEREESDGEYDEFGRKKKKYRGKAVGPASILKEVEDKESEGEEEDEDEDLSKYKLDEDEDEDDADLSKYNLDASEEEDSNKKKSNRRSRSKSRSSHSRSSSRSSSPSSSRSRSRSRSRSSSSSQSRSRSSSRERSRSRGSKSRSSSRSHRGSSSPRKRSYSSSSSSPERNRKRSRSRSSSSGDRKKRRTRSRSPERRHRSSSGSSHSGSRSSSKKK
# UniProt Q96AP0: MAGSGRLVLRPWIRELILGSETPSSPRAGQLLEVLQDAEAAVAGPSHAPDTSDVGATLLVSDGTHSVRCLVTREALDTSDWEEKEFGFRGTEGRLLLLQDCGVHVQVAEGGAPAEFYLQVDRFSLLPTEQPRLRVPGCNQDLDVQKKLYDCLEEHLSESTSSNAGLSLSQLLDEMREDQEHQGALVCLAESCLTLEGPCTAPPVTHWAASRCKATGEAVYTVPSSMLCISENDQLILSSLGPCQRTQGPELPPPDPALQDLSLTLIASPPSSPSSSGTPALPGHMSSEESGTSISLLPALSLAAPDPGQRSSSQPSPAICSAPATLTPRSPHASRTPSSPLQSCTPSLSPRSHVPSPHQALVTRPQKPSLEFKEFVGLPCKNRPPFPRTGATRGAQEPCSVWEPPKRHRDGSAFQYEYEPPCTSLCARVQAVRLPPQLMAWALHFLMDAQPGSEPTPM
# UniProt Q9NRZ9: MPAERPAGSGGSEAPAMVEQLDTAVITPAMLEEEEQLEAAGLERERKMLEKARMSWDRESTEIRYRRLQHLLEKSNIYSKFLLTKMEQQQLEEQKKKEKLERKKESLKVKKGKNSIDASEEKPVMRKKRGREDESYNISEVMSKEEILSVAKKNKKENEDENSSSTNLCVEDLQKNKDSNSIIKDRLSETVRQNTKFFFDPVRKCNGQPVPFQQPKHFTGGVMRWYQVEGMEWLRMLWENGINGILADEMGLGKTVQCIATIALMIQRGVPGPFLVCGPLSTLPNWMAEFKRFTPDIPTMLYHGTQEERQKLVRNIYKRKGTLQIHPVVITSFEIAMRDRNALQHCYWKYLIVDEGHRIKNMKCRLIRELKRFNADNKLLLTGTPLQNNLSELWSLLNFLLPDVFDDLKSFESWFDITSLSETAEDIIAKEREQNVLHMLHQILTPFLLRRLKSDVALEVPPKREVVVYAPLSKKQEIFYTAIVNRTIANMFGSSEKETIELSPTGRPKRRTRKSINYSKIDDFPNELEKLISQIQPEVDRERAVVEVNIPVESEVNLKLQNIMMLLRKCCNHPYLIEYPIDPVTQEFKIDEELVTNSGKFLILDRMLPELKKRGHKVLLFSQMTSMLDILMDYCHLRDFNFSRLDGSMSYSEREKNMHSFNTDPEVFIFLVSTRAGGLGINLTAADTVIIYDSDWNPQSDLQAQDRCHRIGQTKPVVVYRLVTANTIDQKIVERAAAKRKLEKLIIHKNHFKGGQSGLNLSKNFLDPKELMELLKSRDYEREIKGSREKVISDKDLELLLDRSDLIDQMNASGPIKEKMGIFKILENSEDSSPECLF
# UniProt Q99550: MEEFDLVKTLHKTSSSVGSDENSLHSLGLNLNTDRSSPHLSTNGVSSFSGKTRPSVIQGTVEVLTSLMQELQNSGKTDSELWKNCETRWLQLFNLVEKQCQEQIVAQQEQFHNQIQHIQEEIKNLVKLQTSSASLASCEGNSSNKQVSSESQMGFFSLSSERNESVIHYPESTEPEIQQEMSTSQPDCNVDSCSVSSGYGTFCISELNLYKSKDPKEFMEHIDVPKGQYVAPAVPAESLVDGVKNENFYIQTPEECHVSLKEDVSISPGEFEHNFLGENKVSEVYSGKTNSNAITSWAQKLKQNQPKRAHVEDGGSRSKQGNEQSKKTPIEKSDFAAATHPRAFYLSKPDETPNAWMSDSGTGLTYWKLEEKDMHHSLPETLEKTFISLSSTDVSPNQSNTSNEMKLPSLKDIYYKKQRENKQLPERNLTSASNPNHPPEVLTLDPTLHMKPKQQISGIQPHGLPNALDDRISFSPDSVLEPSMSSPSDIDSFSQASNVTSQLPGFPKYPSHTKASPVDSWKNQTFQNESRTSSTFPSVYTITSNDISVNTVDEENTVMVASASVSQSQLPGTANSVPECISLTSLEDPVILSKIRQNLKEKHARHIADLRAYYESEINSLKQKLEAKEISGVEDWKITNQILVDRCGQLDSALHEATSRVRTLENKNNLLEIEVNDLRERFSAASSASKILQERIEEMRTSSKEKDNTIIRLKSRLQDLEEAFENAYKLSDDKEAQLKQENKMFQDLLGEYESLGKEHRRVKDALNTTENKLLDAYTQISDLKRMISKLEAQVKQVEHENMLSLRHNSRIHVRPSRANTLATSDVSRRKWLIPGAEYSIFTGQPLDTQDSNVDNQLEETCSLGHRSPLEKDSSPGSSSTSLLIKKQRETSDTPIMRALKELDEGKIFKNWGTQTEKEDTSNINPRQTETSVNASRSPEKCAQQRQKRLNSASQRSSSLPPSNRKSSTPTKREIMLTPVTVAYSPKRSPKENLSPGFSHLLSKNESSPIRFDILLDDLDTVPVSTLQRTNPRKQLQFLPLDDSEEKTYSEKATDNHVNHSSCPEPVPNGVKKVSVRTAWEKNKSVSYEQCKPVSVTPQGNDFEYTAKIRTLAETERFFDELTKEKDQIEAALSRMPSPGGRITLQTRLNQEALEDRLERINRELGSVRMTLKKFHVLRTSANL
# UniProt Q86VE9: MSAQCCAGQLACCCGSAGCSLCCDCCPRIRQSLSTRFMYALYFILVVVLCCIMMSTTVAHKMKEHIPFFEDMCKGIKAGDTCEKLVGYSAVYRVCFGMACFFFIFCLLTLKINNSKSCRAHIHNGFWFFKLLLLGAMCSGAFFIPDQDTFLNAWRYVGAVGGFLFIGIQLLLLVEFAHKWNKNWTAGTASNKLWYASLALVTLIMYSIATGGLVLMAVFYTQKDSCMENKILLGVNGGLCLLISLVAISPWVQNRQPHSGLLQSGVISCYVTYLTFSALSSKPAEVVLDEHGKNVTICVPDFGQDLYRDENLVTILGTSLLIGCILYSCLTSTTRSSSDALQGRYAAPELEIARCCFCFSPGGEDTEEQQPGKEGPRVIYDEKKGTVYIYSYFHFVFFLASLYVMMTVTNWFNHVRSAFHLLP
# UniProt Q99501: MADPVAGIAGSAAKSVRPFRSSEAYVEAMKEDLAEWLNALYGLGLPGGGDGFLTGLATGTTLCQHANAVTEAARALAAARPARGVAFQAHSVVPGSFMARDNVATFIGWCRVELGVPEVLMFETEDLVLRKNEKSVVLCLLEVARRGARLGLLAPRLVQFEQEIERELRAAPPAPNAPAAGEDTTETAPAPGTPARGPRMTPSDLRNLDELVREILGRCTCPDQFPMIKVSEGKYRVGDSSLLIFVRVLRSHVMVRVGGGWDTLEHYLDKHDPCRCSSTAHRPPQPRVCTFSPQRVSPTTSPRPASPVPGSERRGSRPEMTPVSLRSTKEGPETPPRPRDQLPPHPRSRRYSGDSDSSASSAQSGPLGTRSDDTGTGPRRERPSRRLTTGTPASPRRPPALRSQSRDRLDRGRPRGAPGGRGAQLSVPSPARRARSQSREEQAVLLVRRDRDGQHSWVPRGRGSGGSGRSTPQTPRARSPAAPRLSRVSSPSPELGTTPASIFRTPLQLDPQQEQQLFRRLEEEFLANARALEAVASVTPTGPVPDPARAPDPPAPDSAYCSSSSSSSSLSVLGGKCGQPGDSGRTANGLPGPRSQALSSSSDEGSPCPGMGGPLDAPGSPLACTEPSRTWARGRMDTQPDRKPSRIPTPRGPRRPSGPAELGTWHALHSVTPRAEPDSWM
# ± gives the standard deviation of the averaged measurements. This is one part of the list.
# Compound: Nc1nc2c(ncn2[C@@H]2O[C@H](COP(=O)(O)OP(=O)(O)OP(=O)(O)O)[C@@H](O)[C@H]2O)c(=O)[nH]1 [guanosine triphosphate]
# Assay: NP40-soluble protein abundance relative to vehicle (solubility fold change) (ratio); higher = more soluble protein in presence of GTP
# Outline: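 Values are fold changes against the detergent-processed vehicle, based on vsn-normalised intensities. Jurkat crude lysate was treated at eight concentrations from 0.1 to 10 mM (10 min at room temperature, then 3 min at 37 °C), solubilised with 0.8% NP40 and benzonase, ultracentrifuged and analysed by TMT-labelled LC-MS/MS over three independent experiments.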
Target,NP40-soluble protein abundance (concentration: 0.1mM),NP40-soluble protein abundance (concentration: 0.5mM),NP40-soluble protein abundance (concentration: 1mM),NP40-soluble protein abundance (concentration: 2mM),NP40-soluble protein abundance (concentration: 4mM),NP40-soluble protein abundance (concentration: 6mM),NP40-soluble protein abundance (concentration: 8mM),NP40-soluble protein abundance (concentration: 10mM)
A0A0A0MSZ4|A0A0A0MT64|A0A0A0MTR6|A0A0C4DFN8|J3QQX3 and related entries (UniProt P22570),1.05 ± 0.027,1.01 ± 0.031,1.01 ± 0.057,0.974 ± 0.049,1.01 ± 0.1,0.992 ± 0.082,0.995 ± 0.081,0.916 ± 0.097
A0A140TA84|A0A140TA86|K7EIR2 and related entries (UniProt Q5XKP0+K7EIR2),0.893 ± 0.021,0.931 ± 0.049,0.9146 ± 0.0011,0.916 ± 0.067,0.896 ± 0.018,0.923 ± 0.027,0.93 ± 0.055,0.907 ± 0.028
A0A0D9SGF6|Q13813 and related entries (UniProt Q13813),0.92 ± 0.054,0.96 ± 0.073,0.96 ± 0.063,0.956 ± 0.066,1.04 ± 0.067,1.17 ± 0.076,1.28 ± 0.079,1.33 ± 0.12
UniProt A2RTX5 and related entries,1.175 ± 0.01,1.26 ± 0.11,1.25 ± 0.11,1.31 ± 0.07,1.25 ± 0.053,1.31 ± 0.16,1.31 ± 0.086,1.24 ± 0.17
A0A0B4J2C2|Q9Y2H0 and related entries (UniProt Q9Y2H0),1.03 ± 0.099,1.07 ± 0.18,1.13 ± 0.087,1.09 ± 0.12,0.984 ± 0.094,1.01 ± 0.25,1.04 ± 0.093,1.12 ± 0.18
A0A096LPA2|P30566 (UniProt P30566),1.02 ± 0.024,1.01 ± 0.066,0.896 ± 0.033,0.92 ± 0.095,0.919 ± 0.045,0.883 ± 0.06,0.8542 ± 0.0037,0.862 ± 0.046
A0A0C4DG17|C9J9K3 and related entries (UniProt P08865),0.957 ± 0.064,1 ± 0.067,1.02 ± 0.12,0.959 ± 0.14,0.901 ± 0.21,0.867 ± 0.2,0.801 ± 0.17,0.833 ± 0.2
A0A0A0MTH3|Q13418 (UniProt Q13418),1 ± 0.025,0.989 ± 0.044,0.946 ± 0.024,0.94 ± 0.045,0.946 ± 0.043,0.93 ± 0.043,0.915 ± 0.02,0.883 ± 0.037
A0A0A0MSK5|Q5JTV8 and related entries (UniProt Q5JTV8),0.895 ± 0.045,0.899 ± 0.062,0.91 ± 0.066,0.893 ± 0.085,0.867 ± 0.079,0.899 ± 0.094,0.878 ± 0.058,0.893 ± 0.087
A0AVT1,1.02 ± 0.06,1.02 ± 0.046,0.938 ± 0.034,0.929 ± 0.072,0.915 ± 0.075,0.909 ± 0.04,0.879 ± 0.03,0.847 ± 0.07
A0A0C4DGE4|A0A0J9YW33|F8W9Y0 and related entries (UniProt Q13277),1.09 ± 0.057,1.16 ± 0.049,1.096 ± 0.0038,1.13 ± 0.062,1.11 ± 0.1,1.08 ± 0.063,1.18 ± 0.022,1.09 ± 0.073
A0A0G2JNZ2|A0A0G2JPP5|Q14160 and related entries (UniProt Q14160),1.005 ± 0.01,0.998 ± 0.038,1.01 ± 0.045,0.98 ± 0.064,0.964 ± 0.023,0.957 ± 0.031,0.988 ± 0.022,0.976 ± 0.028
A0A0A0MR39|Q9P2K5-3 (UniProt Q9P2K5),0.967 ± 0.066,1.06 ± 0.045,1.11 ± 0.039,1.13 ± 0.041,1.15 ± 0.078,1.17 ± 0.025,1.19 ± 0.076,1.19 ± 0.1
A0A0U1RQK7|A0A0A0MSA7|O43432 and related entries (UniProt O43432),1.05 ± 0.079,1.02 ± 0.031,1.07 ± 0.079,1.06 ± 0.075,1.09 ± 0.057,1.05 ± 0.035,1.09 ± 0.091,1.05 ± 0.031
A0A0C4DGV5|O95218 and related entries (UniProt O95218),0.89 ± 0.067,0.905 ± 0.072,0.943 ± 0.059,0.882 ± 0.091,0.854 ± 0.073,0.865 ± 0.076,0.865 ± 0.047,0.902 ± 0.09
A0A087X211|Q8TCG1 and related entries (UniProt Q8TCG1),0.986 ± 0.018,1.01 ± 0.025,1 ± 0.012,0.936 ± 0.031,0.947 ± 0.037,0.959 ± 0.038,0.993 ± 0.034,0.963 ± 0.016
A0A0B4J1Z1|C9JAB2 and related entries (UniProt Q16629),1.089 ± 0.0095,1.36 ± 0.1,1.57 ± 0.23,1.58 ± 0.16,1.44 ± 0.33,1.55 ± 0.35,1.74 ± 0.47,1.75 ± 0.52
A0A0C4DGT6|Q96AP0 and related entries (UniProt Q96AP0),1.17 ± 0.1,1.23 ± 0.065,1.11 ± 0.057,1.25 ± 0.12,1.22 ± 0.072,1.32 ± 0.13,1.26 ± 0.11,1.23 ± 0.065
A0A0B4J1V9|Q9NRZ9 and related entries (UniProt Q9NRZ9),1.04 ± 0.037,1.09 ± 0.014,1.11 ± 0.025,1.123 ± 0.01,1.15 ± 0.018,1.16 ± 0.022,1.16 ± 0.053,1.12 ± 0.04
A0A0C4DGG1|Q9UKS6 (UniProt Q9UKS6),0.979 ± 0.1,0.988 ± 0.17,1 ± 0.12,0.981 ± 0.13,0.978 ± 0.095,1.05 ± 0.16,1.02 ± 0.17,1.08 ± 0.12
A0A0A0MTP3|Q99550 and related entries (UniProt Q99550),1.15 ± 0.081,1.04 ± 0.068,1.03 ± 0.021,1 ± 0.026,0.942 ± 0.098,0.863 ± 0.054,0.882 ± 0.098,0.862 ± 0.067
A0A087X1N2|Q03701 (UniProt Q03701),0.968 ± 0.099,1.04 ± 0.081,1.03 ± 0.048,1.02 ± 0.063,1.07 ± 0.053,1.12 ± 0.045,1.23 ± 0.05,1.39 ± 0.082
A0A0A0MTB0|A0A0J9YYI4|D6RHG7 and related entries (UniProt Q86VE9),1.03 ± 0.092,0.988 ± 0.11,0.989 ± 0.026,0.962 ± 0.054,0.933 ± 0.028,0.922 ± 0.039,0.926 ± 0.014,0.924 ± 0.021
A0A5E8 and related entries (UniProt Q99501),1.12 ± 0.09,1.17 ± 0.18,1.21 ± 0.1,1.3 ± 0.15,1.3 ± 0.086,1.37 ± 0.075,1.46 ± 0.035,1.38 ± 0.078
A0A0A0MT56|P33240 and related entries (UniProt P33240),0.965 ± 0.022,0.908 ± 0.038,0.994 ± 0.015,1 ± 0.034,1 ± 0.039,1 ± 0.039,1.076 ± 0.0043,1.07 ± 0.059

# Part of the list above, tab-delimited:
Target	NP40-soluble protein abundance (concentration: 0.1mM)	NP40-soluble protein abundance (concentration: 0.5mM)	NP40-soluble protein abundance (concentration: 1mM)	NP40-soluble protein abundance (concentration: 2mM)	NP40-soluble protein abundance (concentration: 4mM)	NP40-soluble protein abundance (concentration: 6mM)	NP40-soluble protein abundance (concentration: 8mM)	NP40-soluble protein abundance (concentration: 10mM)
A0A0C4DGV5|O95218 and related entries (UniProt O95218)	0.89 ± 0.067	0.905 ± 0.072	0.943 ± 0.059	0.882 ± 0.091	0.854 ± 0.073	0.865 ± 0.076	0.865 ± 0.047	0.902 ± 0.09
A0A0C4DGG1|Q9UKS6 (UniProt Q9UKS6)	0.979 ± 0.1	0.988 ± 0.17	1 ± 0.12	0.981 ± 0.13	0.978 ± 0.095	1.05 ± 0.16	1.02 ± 0.17	1.08 ± 0.12
